Experimental data: PubChem BioAssay AID1259308 (NCATS, 2017)
In all, the deposit lists about 59,000 reagents; shown is an unselected part. In the full data, about 1,510 (2.6%) are marked active. 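Calls use total luciferase alone and ignore viability, so some active siRNAs may act by altering cell number.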 Reagents against one gene are numbered here. Further read-outs or replicates are left out here.

- Test: 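Knock-downs that increase output of a recombinant reporter protein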 (primary screen)
- Cell system: human HEK293 embryonic kidney cells stably expressing firefly luciferase (HEK-CMV-Luc2-Hygro)
- Knock-down reagent: single siRNA against human genes, 0.8 pmol siRNA per well
- Timing: 72 h
- Detection: 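Reporter luminescence and viable-cell signal on separate replicate plates, given as percent of non-targeting control and median/MAD z-scores, plus per-cell luciferase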
- Scale: total luciferase, z-score: higher = more reporter protein produced
- Rule for the call: 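Active when the median/MAD z-score for overall luciferase is greater than 3; a gene was taken forward for validation with new siRNAs if at least two of its three siRNAs passed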
- Calls: active = raised luciferase; inactive = no rise

For SCN11A #1, the values are total luciferase, z-score 0.874; inactive.
Against SCN11A #2, the values are total luciferase, z-score -0.412; inactive.
Depletion of SCN11A #3 resulted in: total luciferase, z-score 1.41; inactive.
After knock-down of CCL24 #1, the record shows total luciferase, z-score 0.358; inactive.
CCL24 #2 scored total luciferase, z-score -1.29; inactive.
After knock-down of CCL24 #3 the results were total luciferase, z-score 0.78; inactive.
For VPS33A #1, the entry reads total luciferase, z-score -0.145; inactive.
With knock-down of VPS33A #2, the screen gave total luciferase, z-score 0.189; inactive.
VPS33A #3 showed total luciferase, z-score 0.054; inactive.
Against PIANP #1 the deposit lists total luciferase, z-score -0.122; inactive.
For PIANP #2, the values are total luciferase, z-score -1.39; inactive.
PIANP #3 showed total luciferase, z-score 0.356; inactive.
Knock-down of ATG4C #1 resulted in: total luciferase, z-score -0.96; inactive.
Silencing of ATG4C #2 resulted in: total luciferase, z-score 0.208; inactive.
Silencing of ATG4C #3 came out at: total luciferase, z-score 0.0179; inactive.
Depletion of FAM111A #1 came out at: total luciferase, z-score -0.0597; inactive.
Depletion of FAM111A #2 gave: total luciferase, z-score -0.25; inactive.
Knock-down of FAM111A #3 resulted in: total luciferase, z-score 0.201; inactive.
FOXRED2 #1 scored total luciferase, z-score -2.06; inactive.
Against FOXRED2 #2, the entry reads total luciferase, z-score -0.361; inactive.
With knock-down of FOXRED2 #3, the screen gave total luciferase, z-score -0.239; inactive.

Records above whose gene name starts with C or c (3):
CCL24 #1 → total luciferase, z-score = 0.358; Outcome = inactive
CCL24 #2 → total luciferase, z-score = -1.29; Outcome = inactive
CCL24 #3 → total luciferase, z-score = 0.78; Outcome = inactive

The results go on:
Against KANK1 #1, the values are total luciferase, z-score -0.364; inactive.
After knock-down of KANK1 #2, the record shows total luciferase, z-score -0.833; inactive.
For KANK1 #3, the values are total luciferase, z-score -1.62; inactive.
For DUXA #1, the entry reads total luciferase, z-score -1.17; inactive.
Depletion of DUXA #2 resulted in: total luciferase, z-score -2.51; inactive.
Depletion of DUXA #3 gave: total luciferase, z-score 1.13; inactive.
With knock-down of H1-5 #1 the results were total luciferase, z-score -1.52; inactive.
Against H1-5 #2, the values are total luciferase, z-score 0.616; inactive.
H1-5 #3 scored total luciferase, z-score 0.755; inactive.
VGF #1 showed total luciferase, z-score -0.0564; inactive.
Against VGF #2, the entry reads total luciferase, z-score -0.343; inactive.
For VGF #3 the deposit lists total luciferase, z-score 1.07; inactive.
